Reference: the supplement of paper PMC10849652
The list shows a part of the results.

The chains behind the UniProt entries cited, without tags or fusion partners. Where a name states a change or a piece, a line headed by the entry shows the natural chain unless it says otherwise.
UniProt P25205: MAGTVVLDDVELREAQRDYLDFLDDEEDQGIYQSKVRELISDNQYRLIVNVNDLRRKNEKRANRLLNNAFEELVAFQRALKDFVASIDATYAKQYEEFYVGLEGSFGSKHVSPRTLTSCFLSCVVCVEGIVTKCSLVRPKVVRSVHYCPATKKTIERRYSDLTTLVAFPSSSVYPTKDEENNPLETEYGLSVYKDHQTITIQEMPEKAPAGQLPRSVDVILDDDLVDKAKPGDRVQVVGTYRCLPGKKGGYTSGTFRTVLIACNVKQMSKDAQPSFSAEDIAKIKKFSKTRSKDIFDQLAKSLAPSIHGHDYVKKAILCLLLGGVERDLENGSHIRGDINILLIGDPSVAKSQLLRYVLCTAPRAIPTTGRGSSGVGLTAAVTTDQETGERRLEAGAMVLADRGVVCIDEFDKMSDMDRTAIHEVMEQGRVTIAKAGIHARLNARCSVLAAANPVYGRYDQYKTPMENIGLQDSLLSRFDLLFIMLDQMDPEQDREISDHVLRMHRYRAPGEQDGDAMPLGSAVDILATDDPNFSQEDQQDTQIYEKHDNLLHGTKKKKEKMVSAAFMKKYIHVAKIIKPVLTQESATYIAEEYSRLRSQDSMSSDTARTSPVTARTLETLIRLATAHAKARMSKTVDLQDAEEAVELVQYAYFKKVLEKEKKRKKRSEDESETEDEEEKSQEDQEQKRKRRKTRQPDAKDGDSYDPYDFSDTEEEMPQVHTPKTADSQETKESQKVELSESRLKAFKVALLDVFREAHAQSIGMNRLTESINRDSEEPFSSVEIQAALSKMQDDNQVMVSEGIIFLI
UniProt Q68D91: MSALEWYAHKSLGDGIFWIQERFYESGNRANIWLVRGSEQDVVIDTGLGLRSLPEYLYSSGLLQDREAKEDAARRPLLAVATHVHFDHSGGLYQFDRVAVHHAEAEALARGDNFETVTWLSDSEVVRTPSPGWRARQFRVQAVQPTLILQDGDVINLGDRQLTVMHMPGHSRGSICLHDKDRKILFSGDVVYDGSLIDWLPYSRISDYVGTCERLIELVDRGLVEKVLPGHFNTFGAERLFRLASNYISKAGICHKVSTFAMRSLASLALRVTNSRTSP
UniProt Q96RN5: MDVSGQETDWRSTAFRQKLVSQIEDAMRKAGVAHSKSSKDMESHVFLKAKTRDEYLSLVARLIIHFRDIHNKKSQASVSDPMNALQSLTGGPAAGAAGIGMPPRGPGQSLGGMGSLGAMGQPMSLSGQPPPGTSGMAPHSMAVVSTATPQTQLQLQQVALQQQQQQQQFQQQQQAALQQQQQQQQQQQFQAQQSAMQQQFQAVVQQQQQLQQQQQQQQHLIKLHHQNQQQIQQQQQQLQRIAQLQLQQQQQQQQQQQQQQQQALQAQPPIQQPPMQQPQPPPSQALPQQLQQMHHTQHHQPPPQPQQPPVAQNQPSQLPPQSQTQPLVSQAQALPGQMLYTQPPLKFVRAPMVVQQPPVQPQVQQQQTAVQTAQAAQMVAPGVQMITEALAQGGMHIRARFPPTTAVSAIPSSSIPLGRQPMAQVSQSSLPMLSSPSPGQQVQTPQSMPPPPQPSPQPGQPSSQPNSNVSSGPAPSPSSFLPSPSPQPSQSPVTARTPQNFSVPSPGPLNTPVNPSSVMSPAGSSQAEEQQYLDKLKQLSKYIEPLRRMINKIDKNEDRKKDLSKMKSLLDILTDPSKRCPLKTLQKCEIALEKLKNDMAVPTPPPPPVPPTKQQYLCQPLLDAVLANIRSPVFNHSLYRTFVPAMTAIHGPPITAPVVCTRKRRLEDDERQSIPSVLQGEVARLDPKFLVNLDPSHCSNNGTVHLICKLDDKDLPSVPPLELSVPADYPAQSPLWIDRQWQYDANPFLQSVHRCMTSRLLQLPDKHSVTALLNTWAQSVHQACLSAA
UniProt Q9H944: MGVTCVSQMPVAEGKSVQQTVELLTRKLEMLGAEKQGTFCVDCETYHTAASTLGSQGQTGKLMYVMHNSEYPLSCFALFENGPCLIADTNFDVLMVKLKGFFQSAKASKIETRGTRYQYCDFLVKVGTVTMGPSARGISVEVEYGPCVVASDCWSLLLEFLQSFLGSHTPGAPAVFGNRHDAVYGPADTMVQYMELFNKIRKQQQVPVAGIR
UniProt Q9ULC4: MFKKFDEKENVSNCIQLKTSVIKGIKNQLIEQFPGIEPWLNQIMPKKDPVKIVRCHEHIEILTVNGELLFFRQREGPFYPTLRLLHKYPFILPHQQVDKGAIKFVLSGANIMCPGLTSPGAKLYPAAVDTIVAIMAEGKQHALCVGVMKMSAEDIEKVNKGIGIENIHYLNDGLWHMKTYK
UniProt Q6UB28: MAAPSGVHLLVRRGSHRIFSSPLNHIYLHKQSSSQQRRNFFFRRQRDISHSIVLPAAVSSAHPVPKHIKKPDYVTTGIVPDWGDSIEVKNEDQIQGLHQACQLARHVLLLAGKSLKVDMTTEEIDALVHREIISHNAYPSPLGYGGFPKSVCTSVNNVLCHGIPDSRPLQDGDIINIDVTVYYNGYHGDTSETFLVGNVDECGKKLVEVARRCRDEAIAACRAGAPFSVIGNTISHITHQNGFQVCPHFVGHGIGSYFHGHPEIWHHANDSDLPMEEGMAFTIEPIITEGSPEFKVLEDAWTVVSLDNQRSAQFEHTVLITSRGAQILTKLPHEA
UniProt Q96RQ3: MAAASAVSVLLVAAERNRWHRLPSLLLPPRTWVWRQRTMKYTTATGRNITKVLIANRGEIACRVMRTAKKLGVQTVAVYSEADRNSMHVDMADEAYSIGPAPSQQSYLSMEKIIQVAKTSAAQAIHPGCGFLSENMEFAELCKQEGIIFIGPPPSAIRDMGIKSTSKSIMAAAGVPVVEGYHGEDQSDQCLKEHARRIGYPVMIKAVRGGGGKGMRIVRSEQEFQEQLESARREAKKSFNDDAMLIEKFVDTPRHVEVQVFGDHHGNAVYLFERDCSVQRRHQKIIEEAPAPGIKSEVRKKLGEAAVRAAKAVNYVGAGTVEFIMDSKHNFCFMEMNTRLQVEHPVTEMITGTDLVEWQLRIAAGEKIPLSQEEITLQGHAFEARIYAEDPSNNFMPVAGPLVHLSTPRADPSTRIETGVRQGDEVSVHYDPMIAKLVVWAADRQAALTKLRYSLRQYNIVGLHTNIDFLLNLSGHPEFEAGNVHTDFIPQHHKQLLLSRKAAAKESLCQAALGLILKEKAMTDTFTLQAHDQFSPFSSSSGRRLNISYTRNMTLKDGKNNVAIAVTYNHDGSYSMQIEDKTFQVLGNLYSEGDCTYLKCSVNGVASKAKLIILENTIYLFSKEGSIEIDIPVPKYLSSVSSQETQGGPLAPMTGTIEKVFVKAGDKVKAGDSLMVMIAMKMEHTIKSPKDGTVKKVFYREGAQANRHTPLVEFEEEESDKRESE
UniProt O00255, whole entry, looked up: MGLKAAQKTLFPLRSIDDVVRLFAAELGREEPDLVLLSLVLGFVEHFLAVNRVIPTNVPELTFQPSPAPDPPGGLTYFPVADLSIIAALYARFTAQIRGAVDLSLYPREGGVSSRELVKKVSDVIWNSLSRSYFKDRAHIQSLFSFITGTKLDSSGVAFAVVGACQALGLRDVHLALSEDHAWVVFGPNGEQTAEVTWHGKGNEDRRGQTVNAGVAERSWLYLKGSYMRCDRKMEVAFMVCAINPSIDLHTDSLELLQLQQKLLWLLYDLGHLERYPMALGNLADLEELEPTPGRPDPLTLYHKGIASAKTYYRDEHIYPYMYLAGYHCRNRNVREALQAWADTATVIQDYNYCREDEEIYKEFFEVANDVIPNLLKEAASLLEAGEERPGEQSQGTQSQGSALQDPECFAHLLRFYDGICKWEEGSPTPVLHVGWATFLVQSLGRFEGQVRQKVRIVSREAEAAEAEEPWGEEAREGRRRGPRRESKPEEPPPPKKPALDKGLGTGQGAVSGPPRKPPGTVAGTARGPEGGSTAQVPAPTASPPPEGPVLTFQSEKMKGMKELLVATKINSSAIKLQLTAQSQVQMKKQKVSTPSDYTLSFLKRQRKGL
UniProt O95568: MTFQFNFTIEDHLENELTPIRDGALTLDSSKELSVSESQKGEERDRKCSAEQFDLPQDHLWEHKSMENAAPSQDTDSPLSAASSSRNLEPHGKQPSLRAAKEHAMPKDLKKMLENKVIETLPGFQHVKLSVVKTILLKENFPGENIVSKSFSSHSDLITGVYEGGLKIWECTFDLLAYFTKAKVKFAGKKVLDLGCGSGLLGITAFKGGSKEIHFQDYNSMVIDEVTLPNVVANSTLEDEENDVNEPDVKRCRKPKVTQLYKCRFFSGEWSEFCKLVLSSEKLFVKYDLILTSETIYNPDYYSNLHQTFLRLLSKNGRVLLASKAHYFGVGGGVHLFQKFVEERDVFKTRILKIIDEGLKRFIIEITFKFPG
UniProt O95983: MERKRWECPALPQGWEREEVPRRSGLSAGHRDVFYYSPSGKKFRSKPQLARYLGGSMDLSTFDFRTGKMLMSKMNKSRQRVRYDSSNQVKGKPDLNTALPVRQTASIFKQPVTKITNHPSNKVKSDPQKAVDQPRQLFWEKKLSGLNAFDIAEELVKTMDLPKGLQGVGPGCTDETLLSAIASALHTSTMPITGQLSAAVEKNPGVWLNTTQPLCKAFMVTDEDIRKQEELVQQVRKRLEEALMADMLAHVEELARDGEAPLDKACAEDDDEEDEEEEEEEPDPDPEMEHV
UniProt P43121, whole entry, looked up: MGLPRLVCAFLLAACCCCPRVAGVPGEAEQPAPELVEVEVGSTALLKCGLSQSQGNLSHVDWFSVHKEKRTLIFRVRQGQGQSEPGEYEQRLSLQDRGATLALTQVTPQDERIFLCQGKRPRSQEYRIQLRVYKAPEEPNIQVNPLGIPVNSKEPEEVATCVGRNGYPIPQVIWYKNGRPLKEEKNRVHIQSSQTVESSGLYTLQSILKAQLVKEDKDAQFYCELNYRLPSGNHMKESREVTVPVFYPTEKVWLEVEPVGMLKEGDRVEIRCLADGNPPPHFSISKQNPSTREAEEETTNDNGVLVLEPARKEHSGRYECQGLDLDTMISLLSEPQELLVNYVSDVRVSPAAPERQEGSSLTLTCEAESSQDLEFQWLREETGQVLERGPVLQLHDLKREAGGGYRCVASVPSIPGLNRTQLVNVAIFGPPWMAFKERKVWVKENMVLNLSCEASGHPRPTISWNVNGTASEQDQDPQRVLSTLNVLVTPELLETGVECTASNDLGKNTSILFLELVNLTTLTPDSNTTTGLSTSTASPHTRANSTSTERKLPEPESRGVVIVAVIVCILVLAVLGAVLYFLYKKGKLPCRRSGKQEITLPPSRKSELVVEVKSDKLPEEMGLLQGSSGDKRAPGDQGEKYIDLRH
UniProt Q86XN8: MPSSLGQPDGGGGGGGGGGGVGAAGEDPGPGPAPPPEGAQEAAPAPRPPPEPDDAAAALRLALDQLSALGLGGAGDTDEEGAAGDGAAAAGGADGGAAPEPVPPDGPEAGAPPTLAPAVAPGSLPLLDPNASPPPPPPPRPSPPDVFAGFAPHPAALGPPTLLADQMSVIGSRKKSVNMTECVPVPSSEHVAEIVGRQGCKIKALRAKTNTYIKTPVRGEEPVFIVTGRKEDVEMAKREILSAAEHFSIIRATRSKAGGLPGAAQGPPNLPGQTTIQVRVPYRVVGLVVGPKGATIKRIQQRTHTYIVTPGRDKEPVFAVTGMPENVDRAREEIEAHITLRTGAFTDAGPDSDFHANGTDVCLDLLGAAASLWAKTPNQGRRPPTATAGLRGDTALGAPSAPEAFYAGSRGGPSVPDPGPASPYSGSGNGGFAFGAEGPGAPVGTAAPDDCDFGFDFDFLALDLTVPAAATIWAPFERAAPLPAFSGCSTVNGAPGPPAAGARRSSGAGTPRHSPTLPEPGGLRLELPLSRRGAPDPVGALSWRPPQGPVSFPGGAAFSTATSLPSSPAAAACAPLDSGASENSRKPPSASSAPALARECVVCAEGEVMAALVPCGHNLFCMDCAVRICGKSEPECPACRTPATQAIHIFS
UniProt Q96AQ8: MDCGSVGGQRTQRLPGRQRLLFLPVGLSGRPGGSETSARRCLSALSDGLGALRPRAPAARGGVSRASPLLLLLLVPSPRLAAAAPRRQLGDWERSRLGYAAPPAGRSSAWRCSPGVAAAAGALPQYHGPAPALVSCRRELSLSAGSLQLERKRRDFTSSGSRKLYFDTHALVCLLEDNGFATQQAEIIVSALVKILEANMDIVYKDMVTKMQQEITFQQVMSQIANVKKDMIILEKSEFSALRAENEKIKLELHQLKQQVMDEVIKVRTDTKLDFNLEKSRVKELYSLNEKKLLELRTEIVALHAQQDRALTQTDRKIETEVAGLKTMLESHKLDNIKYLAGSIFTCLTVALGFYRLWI
UniProt Q9H204: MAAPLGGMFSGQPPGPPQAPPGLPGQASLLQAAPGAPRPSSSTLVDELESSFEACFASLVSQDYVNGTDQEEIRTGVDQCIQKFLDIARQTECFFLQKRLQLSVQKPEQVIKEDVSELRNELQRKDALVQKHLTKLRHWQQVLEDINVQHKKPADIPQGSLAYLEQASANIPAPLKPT

compound: NC1(c2ccc(-c3nc4ccn5c(=O)[nH]nc5c4cc3-c3ccccc3)cc2)CCC1; assay: log2 fold change, soluble protein after heating vs DMSO (PISA); higher = thermal stabilisation; K562 lysate, 10 uM; active = over 0.2 and 3.5 SD of the protein, either way, in both replicates (recomputed)
Procedure, shortened: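 The values are log-two fold changes in thermal stability compared with solvent controls and come from duplicates. They were obtained by TMTpro 16plex LC-MS/MS, with channel sums equalised, on the supernatant after 21,000xg for 90 min. That supernatant came from crude K562 extract at 1 mg/mL protein treated with 10 μM compound for 30 min, heated for 3 min across 48°C-58°C, pooled and brought to 0.5% NP-40 at 4°C.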

log2 fold change, inactive:
MCM3 isoform 2 (UniProt P25205) -0.013, MBLAC2 (UniProt Q68D91) 0.005, MFF isoform 2 (UniProt Q9GZY8) -0.026, MED15 (UniProt Q96RN5) 0, MBOAT7 (UniProt Q96N66) -0.011, MED20 (UniProt Q9H944) 0.036, MDC1 (UniProt Q14676) 0.007, MCTS1 isoform 3 (UniProt Q9ULC4) -0.014, MDH2 (UniProt P40926) 0.007, MDN1 (UniProt Q9NU22) -0.047, METAP1D (UniProt Q6UB28) -0.072, MEF2C isoform 5 (UniProt Q06413) 0.047, METTL14 (UniProt Q9HCE5) -0.015, MED24 (UniProt O75448) -0.008, MCCC1 (UniProt Q96RQ3) -0.045, MFSD4B (UniProt Q5TF39) 0.038, MEA1 (UniProt Q16626) -0.012, MBIP (UniProt Q9NS73) 0.034, MED12 isoform 2 (UniProt Q93074) 0.002, MFSD1 isoform 6 (UniProt Q9H3U5) 0.073, MEN1 (UniProt O00255) -0.033, METTL18 (UniProt O95568) -0.084, MFN2 (UniProt O95140) -0.03, MEPCE (UniProt Q7L2J0) 0.023, MCAT (UniProt Q8IVS2) -0.004, MBD3 (UniProt O95983) 0.018, MDH1 isoform 3 (UniProt P40925) 0.004, MCAM (UniProt P43121) -0.015, MATR3 (UniProt P43243) -0.026, MDP1 (UniProt Q86V88) -0.046, MEX3D isoform 3 (UniProt Q86XN8) 0.029, MCU (UniProt Q8NE86) -0.085, METTL3 (UniProt Q86U44) -0.008, MCUR1 (UniProt Q96AQ8) 0.016, MED28 (UniProt Q9H204) -0.014, METAP1 (UniProt P53582) 0.007
